Source: patent publication US10471057B2 (THE SCRIPPS RESEARCH INSTITUTE, priority 2014, dated 2019)

Assay: general procedure: Fmoc solid-phase peptide synthesis; Fmoc-Rink amide resin (0.59 mmol/g); DIC/HOAt/DIEA; bromoacetic acid/DIC for peptoid units
Settings: whole synthesis, scale of the general procedure 0.3 mmol

N3-2H-K4NMeS-TAMRA showed an isolated yield of 0.1%.
